± gives the standard deviation of the averaged measurements. Whole data set: some 1,600 compounds, median “normalized growth (OD600, IQM-normalized) in LPM” near 1, cut for the lowest 2% near 0.014. The list shows a part of the results.
Tested on: Salmonella enterica serovar Typhimurium SL1344
Assay: normalized growth (OD600, IQM-normalized) in LPM (fraction of plate interquartile mean); higher = more bacterial growth (less inhibition)
Conditions: LPM pH 5.8; 10 µM; 16 h

Row | SMILES | normalized growth
1 | CC[C@H](C)[C@H](N)C1=N[C@H](C(=O)N[C@@H](CC(C)C)C(=O)N[C@H](CCC(=O)O)C(=O)N[C@H](C(=O)N[C@H]2CCCCNC(=O)[C@H](CC(N)=O)NC(=O)[C@@H](CC(=O)O)NC(=O)[C@H](Cc3cnc[nH]3)NC(=O)[C@@H](Cc3ccccc3)NC(=O)[C@H]([C@@H](C)CC)NC(=O)[C@@H](CCCN)NC2=O)[C@@H](C)CC)CS1 | 1.06 ± 0.043
2 | CC(=O)NS(=O)(=O)c1ccc(NC(=O)c2ccccc2C(=O)O)cc1 | 0.988 ± 0.044
3 | OC(CNCC(O)C1CCc2cc(F)ccc2O1)C1CCc2cc(F)ccc2O1 (stereo not drawn) | 1.14 ± 0.072
4 | CC(C)(C#N)c1cc(Cn2cncn2)cc(C(C)(C)C#N)c1 | 0.85 ± 0.065
5 | Oc1c(I)cc(Cl)c2cccnc12 | 0.0675 ± 0.02
6 | CC(=O)c1ccc2c(c1)N(CCCN(C)C)c1ccccc1S2 | 1.06 ± 0.075
7 | CN(C)CCOC(C)(c1ccccc1)c1ccccn1 (stereo not drawn) | 1.03 ± 0.058
8 | C=CCNC(N)=S | 0.957 ± 0.025
9 | Nc1ccn([C@H]2CC[C@@H](CO)O2)c(=O)n1 | 1.04 ± 0.027
10 | COc1cc(/C=C/C(N)=O)cc(OC)c1OC | 0.972 ± 0.033
11 | CN(C(=O)C(Cl)Cl)c1ccc(OC(=O)c2ccco2)cc1 | 0.986 ± 0.033
12 | CCN(CC)CCc1nc(-c2ccccc2)no1 | 0.956 ± 0.062
13 | CCc1cn([C@H]2C[C@H](O)[C@@H](CO)O2)c(=O)[nH]c1=O | 0.664 ± 0.046
14 | O=S(=O)(O)NC1CCCCC1 | 1.94 ± 0.16
15 | CC(NCCC(c1ccccc1)c1ccccc1)c1ccccc1 (stereo not drawn) | 0.976 ± 0.038
16 | CN(C)[C@@H]1C(O)=C(C(=O)NCN2CCCC2)C(=O)[C@@]2(O)C(O)=C3C(=O)c4c(O)cccc4[C@@](C)(O)[C@H]3C[C@@H]12 | 0.854 ± 0.027
17 | Cc1c(N(C)CS(=O)(=O)O)c(=O)n(-c2ccccc2)n1C | 1 ± 0.032
18 | NCC(O)CC(=O)O (stereo not drawn) | 1.14 ± 0.047
19 | CC(=O)OCC(CCn1cnc2cnc(N)nc21)COC(C)=O | 1.08 ± 0.028
20 | C[C@H](CCC(=O)O)[C@H]1CC[C@H]2[C@@H]3[C@H](O)C[C@@H]4C[C@H](O)CC[C@]4(C)[C@H]3CC[C@]12C | 1.09 ± 0.058
21 | CC[C@H](C)C(=O)O[C@H]1CCC=C2C=C[C@H](C)[C@H](CC[C@@H]3C[C@@H](O)CC(=O)O3)[C@H]21 | 0.969 ± 0.022
22 | Nc1cc(C(Cl)=C(Cl)Cl)c(S(N)(=O)=O)cc1S(N)(=O)=O | 1.01 ± 0.036
23 | C1CNCCN1 | 1.001 ± 0.01
24 | COc1c2occc2c(OC)c2c(=O)cc(C)oc12 | 0.867 ± 0.016
25 | O=c1oc2ccccc2c(O)c1Cc1c(O)c2ccccc2oc1=O | 1.04 ± 0.011

Row | SMILES | normalized growth
26 | CN1CCN(CCCN2c3ccccc3Sc3ccc(Cl)cc32)CC1 | 0.982 ± 0.025
27 | COc1ccc(C2CNC(=O)C2)cc1OC1CCCC1 (stereo not drawn) | 1 ± 0.02
28 | O=C1OCCN1/N=C/c1ccc([N+](=O)[O-])o1 | 0.106 ± 0.012
29 | NC(=O)c1ccc([N+](=O)[O-])cc1Cl | 0.895 ± 0.043
30 | CC(C)[C@H](N)C(=O)OCC(CO)OCn1cnc2c(=O)nc(N)[nH]c21 (stereo partly drawn) | 1.02 ± 0.027
31 | CCC(=O)O[C@]1(C(=O)CCl)[C@@H](C)C[C@H]2[C@@H]3CCC4=CC(=O)C=C[C@]4(C)[C@@]3(F)[C@@H](O)C[C@@]21C | 0.923 ± 0.05
32 | c1ccc([C@H]2CN3CCSC3=N2)cc1 | 0.906 ± 0.13
33 | Cc1c(O)c(=O)ccn1C | 0.983 ± 0.036
34 | CC(C)NCC(O)c1ccc2ccccc2c1 (stereo not drawn) | 0.858 ± 0.0091
35 | CC(=O)O[C@]1(C(C)=O)CC[C@H]2[C@@H]3C[C@H](C)C4=CC(=O)CC[C@]4(C)[C@H]3CC[C@@]21C | 1.1 ± 0.036
36 | O=C(O)c1cc(-c2ccccc2)nc2ccccc12 | 0.876 ± 0.054
37 | CN(C)c1nc(N(C)C)nc(N(C)C)n1 | 1.06 ± 0.061
38 | COc1ccccc1OCC(O)CN1CCN(CC(=O)Nc2c(C)cccc2C)CC1 (stereo not drawn) | 0.946 ± 0.025
39 | NC(=O)C(c1ccccc1)(c1ccccc1)[C@@H]1CCN(CCc2ccc3c(c2)CCO3)C1 | 0.931 ± 0.031
40 | CCCNCC(O)COc1ccccc1C(=O)CCc1ccccc1 (stereo not drawn) | 1.32 ± 0.02
41 | C[C@H]1C[C@@H]2[C@H]([C@@H](O)C[C@@]3(C)[C@H]2CC[C@]3(O)C(=O)CO)[C@@]2(C)C=CC(=O)C=C12 | 1.18 ± 0.14
42 | O=C1CC2(CCCC2)CC(=O)N1CCCCN1CCN(c2ncccn2)CC1 | 0.96 ± 0.02
43 | CC[C@H]1OC(=O)[C@H](C)[C@@H](O[C@H]2C[C@@](C)(OC)[C@@H](O)[C@H](C)O2)[C@H](C)[C@@H](O[C@@H]2O[C@H](C)C[C@H](N(C)C)[C@H]2O)[C@](C)(O)C[C@@H](C)[C@@H]2N[C@@H](COCCOC)O[C@H]([C@H]2C)[C@]1(C)O | 1.02 ± 0.015
44 | O=c1cc[nH]c(=S)[nH]1 | 0.954 ± 0.037
45 | CC(=O)OC1CC2CCC1(C)C2(C)C (stereo not drawn) | 1.21 ± 0.048
46 | CC1Cc2ccccc2N1NC(=O)c1ccc(Cl)c(S(N)(=O)=O)c1 (stereo not drawn) | 0.988 ± 0.02
47 | CCC(=O)c1c(O)cc(O)cc1O | 1.09 ± 0.016
48 | FC(F)(Cl)C(F)(F)Cl | 1.09 ± 0.029
49 | Nc1ccc(S(=O)(=O)Nc2ccnn2-c2ccccc2)cc1 | 1.01 ± 0.058
50 | CO/N=C(\C(=O)N[C@@H]1C(=O)N2C(C(=O)O)=C(COC(N)=O)CS[C@H]12)c1ccco1 | 0.616 ± 0.018

Row | SMILES | normalized growth
51 | O=C(NCC(O)CO)c1c(I)c(C(=O)NCC(O)CO)c(I)c(N(CCO)C(=O)CO)c1I (stereo not drawn) | 1.06 ± 0.053
52 | CC(=O)Nc1ncc([N+](=O)[O-])s1 | 0.899 ± 0.018
53 | CC12CCC(CC1)C(C)(C)O2 | 0.988 ± 0.08
54 | CCCCCCCCCCCCCCCC(=O)O[C@@H]1[C@@H](O)[C@@H](O)[C@@H]([C@H](NC(=O)[C@@H]2C[C@@H](CCC)CN2C)[C@H](C)Cl)O[C@@H]1SC | 0.953 ± 0.024
55 | Cc1cc(CC(=O)O)n(C)c1C(=O)c1ccc(Cl)cc1 | 1 ± 0.05
56 | COc1ccc2cc(C(C)C(=O)O)ccc2c1 (stereo not drawn) | 1.07 ± 0.032
57 | CC(C)C[C@@H]1NC(=O)[C@H](CCCN)NC(=O)[C@H](C(C)C)NC(=O)[C@H](Cc2ccc(O)cc2)N[C@@H](CCC(=O)O)C(=O)N[C@@H](CC(N)=O)C(=O)[C@@H](Cc2ccccc2)NC(=O)[C@H](Cc2ccccc2)NC(=O)[C@@H]2CCCN2C(=O)[C@@H](Cc2ccccc2)NC1=O | 0.992 ± 0.1
58 | Nc1ccc2cc3ccc(N)cc3nc2c1 | 0.57 ± 0.074
59 | CC1(C)O[C@@H]2C[C@H]3[C@@H]4CCC5=CC(=O)C=C[C@]5(C)[C@@]4(F)[C@@H](O)C[C@]3(C)[C@]2(C(=O)CO)O1 | 0.891 ± 0.017
60 | O=C(O)CCCc1ccccc1 | 0.998 ± 0.044
61 | Cc1cnc(NC(=O)C2=C(O)c3ccccc3S(=O)(=O)N2C)s1 | 1.03 ± 0.1
62 | O=C(O)COC(=O)Cc1ccccc1Nc1c(Cl)cccc1Cl | 1.68 ± 0.2
63 | C[C@@H]1C[C@H]2[C@@H]3CCC4=CC(=O)C=C[C@]4(C)[C@@]3(F)[C@@H](O)C[C@]2(C)[C@@]1(O)C(=O)CO | 0.992 ± 0.067
64 | OC1(c2ccc(Cl)c(C(F)(F)F)c2)CCN(CCCC(c2ccc(F)cc2)c2ccc(F)cc2)CC1 | 0.849 ± 0.038
65 | O=C1C2CC3CC1CC(O)(C3)C2 | 0.916 ± 0.049
66 | Cc1nnc(NS(=O)(=O)c2ccc(N)cc2)s1 | 1.01 ± 0.026
67 | CC1CC(OC(=O)C(O)c2ccccc2)CC(C)(C)N1C (stereo not drawn) | 1.07 ± 0.061
68 | C1CCN2C[C@@H]3C[C@@H](CN4CCCC[C@@H]34)[C@H]2C1 | 1.13 ± 0.04
69 | CC1=Nc2ccc(Cl)cc2S(=O)(=O)N1 | 0.927 ± 0.058
70 | CC(C(=O)O)c1ccc(N2Cc3ccccc3C2=O)cc1 (stereo not drawn) | 0.982 ± 0.048
71 | CCN1CCN(C(=O)N[C@@H](C(=O)N[C@@H]2C(=O)N3C(C(=O)O)=C(CSc4nnnn4C)CS[C@H]23)c2ccc(O)cc2)C(=O)C1=O | 0.941 ± 0.089
72 | CN(C)CCOc1ccc(/C(=C(/CCCl)c2ccccc2)c2ccccc2)cc1 | 1.08 ± 0.11
73 | Cc1ccc(Cl)c(Nc2ccccc2C(=O)O)c1Cl | 2.25 ± 0.16
74 | C[C@H]1C[C@H]2[C@@H]3CCC4=CC(=O)C=C[C@]4(C)[C@@]3(F)[C@@H](O)C[C@]2(C)[C@@]1(O)C(=O)CO | 1.01 ± 0.065
75 | Oc1ccc(OCc2ccccc2)cc1 | 0.91 ± 0.11

Of the compounds above, 4 have a furan ring, fused or not:
Row | SMILES | normalized growth
11 | CN(C(=O)C(Cl)Cl)c1ccc(OC(=O)c2ccco2)cc1 | 0.986 ± 0.033
24 | COc1c2occc2c(OC)c2c(=O)cc(C)oc12 | 0.867 ± 0.016
28 | O=C1OCCN1/N=C/c1ccc([N+](=O)[O-])o1 | 0.106 ± 0.012
50 | CO/N=C(\C(=O)N[C@@H]1C(=O)N2C(C(=O)O)=C(COC(N)=O)CS[C@H]12)c1ccco1 | 0.616 ± 0.018

As a working copy, four of the compounds above:
Row | SMILES | normalized growth
69 | CC1=Nc2ccc(Cl)cc2S(=O)(=O)N1 | 0.927 ± 0.058
70 | CC(C(=O)O)c1ccc(N2Cc3ccccc3C2=O)cc1 (stereo not drawn) | 0.982 ± 0.048
71 | CCN1CCN(C(=O)N[C@@H](C(=O)N[C@@H]2C(=O)N3C(C(=O)O)=C(CSc4nnnn4C)CS[C@H]23)c2ccc(O)cc2)C(=O)C1=O | 0.941 ± 0.089
72 | CN(C)CCOc1ccc(/C(=C(/CCCl)c2ccccc2)c2ccccc2)cc1 | 1.08 ± 0.11

Next entries follow.

Row | SMILES | normalized growth
76 | CCCCNc1ccc(C(=O)OCCOCCOCCOCCOCCOCCOCCOCCOCCOC)cc1 | 1.2 ± 0.11
77 | CC(C)(Oc1ccc(C(=O)c2ccc(Cl)cc2)cc1)C(=O)O | 0.976 ± 0.024
78 | Cc1cc(/C=C/c2ccc3cc(N(C)C)ccc3[n+]2C)c(C)n1-c1ccccc1 | 0.928 ± 0.037
79 | CCn1nc(C(=O)O)c(=O)c2cc3c(cc21)OCO3 | 0.00789 ± 0.00035
80 | Cc1nc2ccccc2n1Cc1ccc(Cl)cc1 | 0.912 ± 0.027
81 | Cc1cc(=O)oc2cc(O)ccc12 | 0.995 ± 0.025
82 | OC[C@H]1O[C@H]([S-])[C@H](O)[C@@H](O)[C@@H]1O.[Au+] | 0.774 ± 0.031
83 | O=C(NCc1ccccc1)OCCO | 0.961 ± 0.11
84 | CC(=O)c1ccc(S(=O)(=O)NC(=O)NC2CCCCC2)cc1 | 0.812 ± 0.017
85 | CCCNC(C)C(=O)Nc1ccccc1C (stereo not drawn) | 0.972 ± 0.027
86 | COc1ccc(CN(CCN(C)C)c2ccccn2)cc1 | 1.07 ± 0.022
87 | Nc1ncn([C@@H]2O[C@H](CO)[C@@H](O)[C@H]2O)c(=O)n1 | 0.0134 ± 0.00024
88 | CC(COc1ccccc1)N(CCCl)Cc1ccccc1 (stereo not drawn) | 0.952 ± 0.028
89 | Cc1scc2c1N(C(=O)CN1CCN(C)CC1)c1ccccc1NC2=O | 0.966 ± 0.057
90 | C=C1c2cccc(O)c2C(=O)C2=C(O)[C@]3(O)C(=O)C(C(N)=O)=C(O)[C@@H](N(C)C)[C@@H]3[C@@H](O)[C@H]12 | 0.0154 ± 0.00028
91 | c1ccc(C2CN3CCSC3=N2)cc1 (stereo not drawn) | 1.08 ± 0.021
92 | C[C@]12CCC(=O)C=C1CC[C@@H]1[C@@H]2[C@@H](O)C[C@@]2(C)[C@H]1CC[C@]2(O)C(=O)COC(=O)CCC(=O)O | 0.929 ± 0.04
93 | CC(C)(C)NC[C@H](O)COc1nsnc1N1CCOCC1 | 1.2 ± 0.005
94 | NCCCC[C@H](N[C@@H](CCc1ccccc1)C(=O)O)C(=O)N1CCC[C@H]1C(=O)O | 0.96 ± 0.048
95 | CO/N=C(\C(=O)N[C@@H]1C(=O)N2C(C(=O)O)=C(CSc3nc(=O)c(O)nn3C)CS[C@H]12)c1csc(N)n1 | 0.0987 ± 0.025
96 | CCOC(=O)OC(C)OC(=O)[C@@H]1N2C(=O)[C@@H](NC(=O)[C@H](N)c3ccccc3)[C@H]2SC1(C)C (stereo partly drawn) | 1.02 ± 0.022
97 | COC1=C(OC)C(=O)C(CCCCCCCCCCO)=C(C)C1=O | 0.998 ± 0.021
98 | CCOC(=O)[C@H](CCc1ccccc1)N[C@H]1CCc2ccccc2N(CC(=O)O)C1=O | 0.827 ± 0.067
